Experimental findings from patent publication US20130005833A1, “PHOTO-RESPONSIVE SUPRAMOLECULAR HYDROGELS” (priority 2011, published 2013) are described below.

This series can be described thus: Response of the gel to addition of vancomycin. The note with it: one equivalent of vancomycin hydrochloride added to the surface of the gel.

Turning to Azo-Lys-D-Phe-D-Ala, the “phase change of the gel upon addition of vancomycin” value was “gradually changed to a homogeneous solution”.
In the case of Azo-Lys-Phe-Ala, the “phase change of the gel upon addition of vancomycin” value is listed as “no phase change”.
